Measured values taken from publication PMC6956814, “Deubiquitinase USP28 inhibits ubiquitin ligase KLHL2-mediated uridine-cytidine kinase 1 degradation and confers sensitivity to 5'-azacytidine-resistant human leukemia cells” (Theranostics, 2020).
These are yes or no findings as the source states them, for the method shown. Binding seen in cells or lysates may run through a third protein. Some entries that bind do so weakly or less than the wild type. For some of these results: Where a sequence is shown, tags or fusion partners need not be part of it. Each block holds one binder with its values, some of them ahead of it.

How the values were obtained:
[1] = biological target: T1, UCK1 (uridine-cytidine kinase 1), endogenous (human (endogenous in HEK293T, MV4-11, HL-60)) (UniProt Q9HA47); experiment: co-IP; endogenous proteins, MV4-11 extracts, immunoprecipitated with anti-UCK1 or anti-KLHL2 antibody
T1 sequence: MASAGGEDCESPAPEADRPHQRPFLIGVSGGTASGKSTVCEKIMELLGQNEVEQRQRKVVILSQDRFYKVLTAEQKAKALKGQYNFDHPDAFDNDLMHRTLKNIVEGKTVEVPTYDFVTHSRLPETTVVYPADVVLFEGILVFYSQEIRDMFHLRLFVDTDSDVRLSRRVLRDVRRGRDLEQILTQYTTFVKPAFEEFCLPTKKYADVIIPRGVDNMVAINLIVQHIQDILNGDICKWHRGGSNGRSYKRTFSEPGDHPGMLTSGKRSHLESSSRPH

[2] = biological target: T1, UCK1 (uridine-cytidine kinase 1), endogenous (human (endogenous in HEK293T, MV4-11, HL-60)); experiment: co-IP; endogenous proteins, HEK293T extracts, immunoprecipitated with anti-UCK1 or anti-KLHL2 antibody
[3] = biological target: T1, UCK1 (uridine-cytidine kinase 1), endogenous (human (endogenous in HEK293T, MV4-11, HL-60)); experiment: proximity ligation; Duolink In Situ Red Starter Kit Mouse/Rabbit; HL-60 cells with indicated treatment
Flag-UCK1-WT (human) = biological target: T2, Flag-UCK1-WT (human) (UniProt Q9HA47); experiment: co-IP; HL-60 cells transfected with vector, Flag-UCK1-WT or Flag-UCK1-S145A, 2 days later treated with or without 5'-AZA for 6 h; immunoprecipitation and immunoblotting
T2 sequence: T1 sequence

His-UCK1 (human) = biological target: T3, His-UCK1 (human) (UniProt Q9HA47); experiment: co-IP; HEK293T cells transiently transfected with His-UCK1 and GFP-KLHL2 for 48 hours; reciprocal immunoprecipitation, blots with His or GFP antibodies
T3 sequence: T1 sequence

[4] = biological target: T4, 23-220 amino acid (aa) fragment of GST-UCK1 (human) (UniProt Q9HA47); experiment: pull-down; GST-tagged fragments of UCK1 (and truncated KLHL2 fragments) tested against the other protein, immunoblot; Figure 1F
T4 sequence: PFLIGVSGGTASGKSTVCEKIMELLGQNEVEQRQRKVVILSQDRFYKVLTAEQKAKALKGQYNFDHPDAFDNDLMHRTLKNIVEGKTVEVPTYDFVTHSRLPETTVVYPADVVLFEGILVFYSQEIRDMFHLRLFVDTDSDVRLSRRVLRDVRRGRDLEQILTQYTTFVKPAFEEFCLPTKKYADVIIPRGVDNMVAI

[5] = biological target: T5, KLHL2, expressed from a plasmid in HEK293T cells (human) (UniProt O95198); experiment: co-IP; HEK293T cells expressing KLHL2, HA-UCK1 and Flag-USP28; immunoprecipitation with anti-KLHL2 antibody
T5 sequence: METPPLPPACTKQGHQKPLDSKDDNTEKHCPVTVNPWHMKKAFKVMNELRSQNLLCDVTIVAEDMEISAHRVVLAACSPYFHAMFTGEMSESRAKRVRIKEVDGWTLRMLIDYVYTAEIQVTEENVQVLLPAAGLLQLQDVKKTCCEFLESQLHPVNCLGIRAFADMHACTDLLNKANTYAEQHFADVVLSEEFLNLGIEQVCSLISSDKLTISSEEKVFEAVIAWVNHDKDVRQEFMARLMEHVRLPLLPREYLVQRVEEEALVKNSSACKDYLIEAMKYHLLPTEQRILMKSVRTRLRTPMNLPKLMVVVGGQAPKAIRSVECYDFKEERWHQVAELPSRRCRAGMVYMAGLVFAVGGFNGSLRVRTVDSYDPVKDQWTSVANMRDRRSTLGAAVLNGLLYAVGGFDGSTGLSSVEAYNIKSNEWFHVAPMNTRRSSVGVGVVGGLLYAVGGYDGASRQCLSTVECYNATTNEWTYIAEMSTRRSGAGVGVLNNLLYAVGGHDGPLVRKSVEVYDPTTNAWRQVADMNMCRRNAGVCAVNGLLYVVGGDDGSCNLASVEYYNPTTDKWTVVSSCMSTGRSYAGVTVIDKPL

B2: GFP-KLHL2 (protein, UniProt O95198 1-593)
chain: T5 sequence
- binding (His-UCK1 (human)): binds

B3: His-tagged KLHL2 protein (protein, UniProt O95198 1-593)
chain: T5 sequence
- binding [4]: binds

Second part, the binder after the results:

- binding [1]: binds
- binding [2]: binds
- binding [3]: binds
- binding (Flag-UCK1-WT (human)): binds
B1: KLHL2 (Kelch Like Family Member 2), endogenous (protein, UniProt O95198 1-593)
chain: T5 sequence

- binding [5]: binds
B4: Recombinant GST-UCK1 protein (enzyme, human, UniProt Q9HA47 1-277, looked up)
chain: T1 sequence
notes: uridine-cytidine kinase 1 (UCK1), human; source: recombinant
